No constants are given. Whether binding was seen depends on the method and setting. Binding seen in cells or lysates may run through a third protein. For some assays here: Binding calls can cover weak binding; strength is not graded here. Where a sequence is shown, tags or fusion partners need not be part of it.

The chains behind the UniProt entries cited, without tags or fusion partners. Where a name states a change or a piece, a line headed by the entry shows the natural chain unless it says otherwise.
UniProt P98161: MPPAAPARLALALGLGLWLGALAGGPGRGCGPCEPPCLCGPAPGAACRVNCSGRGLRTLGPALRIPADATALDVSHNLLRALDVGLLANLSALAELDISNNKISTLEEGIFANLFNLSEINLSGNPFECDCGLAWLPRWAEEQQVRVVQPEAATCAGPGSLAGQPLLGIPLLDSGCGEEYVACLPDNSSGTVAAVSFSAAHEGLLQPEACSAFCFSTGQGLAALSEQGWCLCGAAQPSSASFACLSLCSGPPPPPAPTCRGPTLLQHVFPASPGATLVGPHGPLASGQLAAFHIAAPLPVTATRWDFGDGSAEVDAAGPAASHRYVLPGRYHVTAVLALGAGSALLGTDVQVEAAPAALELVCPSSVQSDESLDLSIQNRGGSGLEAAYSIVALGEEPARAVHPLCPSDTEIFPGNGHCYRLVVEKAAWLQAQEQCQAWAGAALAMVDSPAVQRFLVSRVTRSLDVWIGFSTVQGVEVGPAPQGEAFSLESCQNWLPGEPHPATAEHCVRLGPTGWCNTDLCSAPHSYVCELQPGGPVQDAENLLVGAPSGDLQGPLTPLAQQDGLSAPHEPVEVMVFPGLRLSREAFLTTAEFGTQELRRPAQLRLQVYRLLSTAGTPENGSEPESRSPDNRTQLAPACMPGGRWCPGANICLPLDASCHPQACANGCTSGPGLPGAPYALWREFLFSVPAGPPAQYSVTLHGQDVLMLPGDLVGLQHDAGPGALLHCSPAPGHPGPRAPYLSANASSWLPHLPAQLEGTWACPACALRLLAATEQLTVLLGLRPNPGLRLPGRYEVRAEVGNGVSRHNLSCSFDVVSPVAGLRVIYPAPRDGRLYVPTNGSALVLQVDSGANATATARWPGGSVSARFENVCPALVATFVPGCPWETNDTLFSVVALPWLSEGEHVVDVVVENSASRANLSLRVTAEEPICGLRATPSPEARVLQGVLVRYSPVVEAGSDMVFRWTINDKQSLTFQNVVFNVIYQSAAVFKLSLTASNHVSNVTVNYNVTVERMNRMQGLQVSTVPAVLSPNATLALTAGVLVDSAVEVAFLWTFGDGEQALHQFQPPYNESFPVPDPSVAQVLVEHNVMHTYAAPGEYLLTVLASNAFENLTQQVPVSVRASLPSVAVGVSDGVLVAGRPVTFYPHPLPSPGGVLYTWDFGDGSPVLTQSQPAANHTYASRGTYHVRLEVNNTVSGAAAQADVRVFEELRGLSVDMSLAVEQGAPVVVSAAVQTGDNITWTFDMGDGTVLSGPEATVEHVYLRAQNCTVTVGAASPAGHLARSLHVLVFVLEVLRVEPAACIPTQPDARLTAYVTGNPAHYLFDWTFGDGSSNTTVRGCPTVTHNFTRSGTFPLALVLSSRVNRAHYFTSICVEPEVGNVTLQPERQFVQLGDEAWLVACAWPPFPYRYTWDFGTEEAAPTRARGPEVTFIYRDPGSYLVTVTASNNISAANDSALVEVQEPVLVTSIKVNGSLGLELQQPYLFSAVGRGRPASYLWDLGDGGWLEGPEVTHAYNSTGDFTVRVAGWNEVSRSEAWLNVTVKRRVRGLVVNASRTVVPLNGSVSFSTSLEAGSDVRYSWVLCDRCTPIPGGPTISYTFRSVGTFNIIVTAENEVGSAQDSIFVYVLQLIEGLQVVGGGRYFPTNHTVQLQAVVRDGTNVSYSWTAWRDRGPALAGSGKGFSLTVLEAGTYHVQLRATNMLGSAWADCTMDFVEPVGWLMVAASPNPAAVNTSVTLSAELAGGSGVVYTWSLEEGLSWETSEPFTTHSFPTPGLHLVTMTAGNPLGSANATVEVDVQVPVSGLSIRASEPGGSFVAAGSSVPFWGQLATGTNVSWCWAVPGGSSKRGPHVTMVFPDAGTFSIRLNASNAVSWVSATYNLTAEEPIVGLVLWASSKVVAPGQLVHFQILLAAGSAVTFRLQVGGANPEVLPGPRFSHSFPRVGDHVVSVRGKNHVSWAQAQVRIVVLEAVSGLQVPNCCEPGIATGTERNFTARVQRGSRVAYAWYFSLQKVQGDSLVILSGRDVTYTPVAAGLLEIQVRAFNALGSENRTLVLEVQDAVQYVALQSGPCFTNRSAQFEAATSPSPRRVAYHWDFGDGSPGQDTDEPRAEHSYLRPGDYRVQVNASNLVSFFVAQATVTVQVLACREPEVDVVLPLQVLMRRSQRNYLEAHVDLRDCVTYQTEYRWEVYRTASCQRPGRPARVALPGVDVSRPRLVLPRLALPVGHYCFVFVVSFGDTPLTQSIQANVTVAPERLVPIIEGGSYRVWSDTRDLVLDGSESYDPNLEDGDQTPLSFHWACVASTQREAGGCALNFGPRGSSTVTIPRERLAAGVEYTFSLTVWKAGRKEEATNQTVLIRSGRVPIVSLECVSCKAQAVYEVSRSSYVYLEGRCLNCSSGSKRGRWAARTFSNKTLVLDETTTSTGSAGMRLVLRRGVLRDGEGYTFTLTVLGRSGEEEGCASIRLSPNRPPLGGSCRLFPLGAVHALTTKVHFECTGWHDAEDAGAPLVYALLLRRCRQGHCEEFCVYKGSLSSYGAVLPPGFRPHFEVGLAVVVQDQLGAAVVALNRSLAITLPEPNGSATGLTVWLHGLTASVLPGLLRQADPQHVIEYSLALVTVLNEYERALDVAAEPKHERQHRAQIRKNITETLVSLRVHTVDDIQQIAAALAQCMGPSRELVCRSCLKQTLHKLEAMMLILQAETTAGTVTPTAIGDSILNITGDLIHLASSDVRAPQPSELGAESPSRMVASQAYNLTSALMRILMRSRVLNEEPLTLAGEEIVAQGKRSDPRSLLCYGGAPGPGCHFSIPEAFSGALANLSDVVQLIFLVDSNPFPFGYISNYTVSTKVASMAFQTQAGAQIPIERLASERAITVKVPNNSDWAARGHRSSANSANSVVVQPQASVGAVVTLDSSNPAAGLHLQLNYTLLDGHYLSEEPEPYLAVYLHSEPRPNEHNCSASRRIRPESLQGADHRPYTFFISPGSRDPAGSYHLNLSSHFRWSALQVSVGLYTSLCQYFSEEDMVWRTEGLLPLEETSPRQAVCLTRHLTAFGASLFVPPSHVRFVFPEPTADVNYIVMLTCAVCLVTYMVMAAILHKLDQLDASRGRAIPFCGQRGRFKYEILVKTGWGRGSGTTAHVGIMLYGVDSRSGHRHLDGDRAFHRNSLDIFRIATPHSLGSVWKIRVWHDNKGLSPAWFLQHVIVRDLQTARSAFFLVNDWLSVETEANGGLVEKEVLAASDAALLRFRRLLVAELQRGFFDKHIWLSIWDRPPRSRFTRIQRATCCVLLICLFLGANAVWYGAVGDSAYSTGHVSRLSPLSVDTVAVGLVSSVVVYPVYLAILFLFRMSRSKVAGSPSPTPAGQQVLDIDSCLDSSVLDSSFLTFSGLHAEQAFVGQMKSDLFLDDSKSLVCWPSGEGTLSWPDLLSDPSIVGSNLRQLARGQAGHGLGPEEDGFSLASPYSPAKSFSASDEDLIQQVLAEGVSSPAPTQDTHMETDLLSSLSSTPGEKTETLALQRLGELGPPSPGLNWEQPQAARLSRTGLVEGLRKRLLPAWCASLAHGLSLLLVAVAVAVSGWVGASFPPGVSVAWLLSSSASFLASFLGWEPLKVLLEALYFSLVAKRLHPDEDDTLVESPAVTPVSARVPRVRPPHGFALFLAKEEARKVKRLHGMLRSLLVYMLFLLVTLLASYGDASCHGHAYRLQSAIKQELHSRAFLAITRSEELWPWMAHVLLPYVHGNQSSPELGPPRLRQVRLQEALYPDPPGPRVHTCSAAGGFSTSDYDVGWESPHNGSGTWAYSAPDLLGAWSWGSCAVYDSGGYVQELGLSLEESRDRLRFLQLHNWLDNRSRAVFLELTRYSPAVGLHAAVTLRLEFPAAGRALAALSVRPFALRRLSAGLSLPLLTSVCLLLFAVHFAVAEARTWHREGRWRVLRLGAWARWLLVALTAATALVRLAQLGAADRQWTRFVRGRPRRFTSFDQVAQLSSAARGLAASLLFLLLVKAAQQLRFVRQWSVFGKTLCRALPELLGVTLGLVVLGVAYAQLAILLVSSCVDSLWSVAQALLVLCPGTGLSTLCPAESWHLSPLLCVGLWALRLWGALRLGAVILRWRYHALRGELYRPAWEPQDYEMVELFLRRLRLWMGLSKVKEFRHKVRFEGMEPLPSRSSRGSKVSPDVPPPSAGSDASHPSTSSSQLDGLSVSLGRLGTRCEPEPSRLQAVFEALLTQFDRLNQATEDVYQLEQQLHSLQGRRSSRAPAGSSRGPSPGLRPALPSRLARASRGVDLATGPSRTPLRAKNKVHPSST

We go through one molecule from article PMC7455122.

Assay [1] deals with GST-CT1 (GST fusion of the PC1 C-terminus). Kind of assay: pull-down; GST-CT1 or GST-CT1-R4227X as bait, FLAG-ARHGAP35 detected by blot; performed as previously described (ref. 26).
Assay [2] has as its target GST-CT1-R4227X (truncated PC1 C-terminus) (UniProt P98161). The assay is described as above.

B1: full-length FLAG-ARHGAP35 (protein, UniProt Q9NRY4 1-1499)
chain: MMMARKQDVRIPTYNISVVGLSGTEKEKGQCGIGKSCLCNRFVRPSADEFHLDHTSVLSTSDFGGRVVNNDHFLYWGEVSRSLEDCVECKMHIVEQTEFIDDQTFQPHRSTALQPYIKRAAATKLASAEKLMYFCTDQLGLEQDFEQKQMPDGKLLVDGFLLGIDVSRGMNRNFDDQLKFVSNLYNQLAKTKKPIVVVLTKCDEGVERYIRDAHTFALSKKNLQVVETSARSNVNVDLAFSTLVQLIDKSRGKTKIIPYFEALKQQSQQIATAKDKYEWLVSRIVKNHNENWLSVSRKMQASPEYQDYVYLEGTQKAKKLFLQHIHRLKHEHIERRRKLYLAALPLAFEALIPNLDEIDHLSCIKAKKLLETKPEFLKWFVVLEETPWDATSHIDNMENERIPFDLMDTVPAEQLYEAHLEKLRNERKRVEMRRAFKENLETSPFITPGKPWEEARSFIMNEDFYQWLEESVYMDIYGKHQKQIIDKAKEEFQELLLEYSELFYELELDAKPSKEKMGVIQDVLGEEQRFKALQKLQAERDALILKHIHFVYHPTKETCPSCPACVDAKIEHLISSRFIRPSDRNQKNSLSDPNIDRINLVILGKDGLARELANEIRALCTNDDKYVIDGKMYELSLRPIEGNVRLPVNSFQTPTFQPHGCLCLYNSKESLSYVVESIEKSRESTLGRRDNHLVHLPLTLILVNKRGDTSGETLHSLIQQGQQIASKLQCVFLDPASAGIGYGRNINEKQISQVLKGLLDSKRNLNLVSSTASIKDLADVDLRIVMCLMCGDPFSADDILFPVLQSQTCKSSHCGSNNSVLLELPIGLHKKRIELSVLSYHSSFSIRKSRLVHGYIVFYSAKRKASLAMLRAFLCEVQDIIPIQLVALTDGAVDVLDNDLSREQLTEGEEIAQEIDGRFTSIPCSQPQHKLEIFHPFFKDVVEKKNIIEATHMYDNAAEACSTTEEVFNSPRAGSPLCNSNLQDSEEDIEPSYSLFREDTSLPSLSKDHSKLSMELEGNDGLSFIMSNFESKLNNKVPPPVKPKPPVHFEITKGDLSYLDQGHRDGQRKSVSSSPWLPQDGFDPSDYAEPMDAVVKPRNEEENIYSVPHDSTQGKIITIRNINKAQSNGSGNGSDSEMDTSSLERGRKVSIVSKPVLYRTRCTRLGRFASYRTSFSVGSDDELGPIRKKEEDQASQGYKGDNAVIPYETDEDPRRRNILRSLRRNTKKPKPKPRPSITKATWESNYFGVPLTTVVTPEKPIPIFIERCIEYIEATGLSTEGIYRVSGNKSEMESLQRQFDQDHNLDLAEKDFTVNTVAGAMKSFFSELPDPLVPYNMQIDLVEAHKINDREQKLHALKEVLKKFPKENHEVFKYVISHLNKVSHNNKVNLMTSENLSICFWPTLMRPDFSTMDALTATRTYQTIIELFIQQCPFFFYNRPITEPPGARPSSPSAVASTVPFLTSTPVTSQPSPPQSPPPTPQSPMQPLLPSQLQAEHTL
As for B1, the values for the binding result in assay [1] and in assay [2] were “binds” and “no binding”, respectively.
